Out of some 580,000 compounds screened, about 6,100 (1.1%) were called active. Inconclusive results, whose numbers are uncertain, are shown with a selection of clear calls. The call rests on the fitted dose curve; in most records, active means well fitted inhibition curve with a large enough effect; inconclusive means small, poorly fitted or top-dose-only effect, or another doubt; inactive means no such curve, though single readings can be large or run the other way. Potencies of inconclusive entries are doubtful fits and often do not repeat.
Biological target: Polyunsaturated fatty acid lipoxygenase ALOX12 (Homo sapiens) (UniProt P18054)
Assay: Primary qHTS assay for inhibitors of human arachidonate 12S-lipoxygenase (ALOX12): Round 2
Conditions: purified 12hLO, xylenol orange hydroperoxide absorbance; activity change, negative = inhibition: at 108 µM (top of the series) unless noted
How it was run: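 Purified human 12hLO at 150 nM in 25 mM Hepes, 0.01% Triton X-100, pH 7.0, preincubated 15 min at room temperature with compound. Reaction started with 40 uM arachidonic acid, 30 min at room temperature. Hydroperoxide measured by Fe-xylenol orange, 573/405 nm absorbance ratio.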
On the % scale 0 is the no-effect control and ±100 the full control effect; potency means the concentration at half of the fitted maximal effect.

By UniProt entry, the sequences of proteins in these tests, tags left out. Where a name states a change or a piece, a line headed by the entry shows the natural chain unless it says otherwise.
UniProt P18054: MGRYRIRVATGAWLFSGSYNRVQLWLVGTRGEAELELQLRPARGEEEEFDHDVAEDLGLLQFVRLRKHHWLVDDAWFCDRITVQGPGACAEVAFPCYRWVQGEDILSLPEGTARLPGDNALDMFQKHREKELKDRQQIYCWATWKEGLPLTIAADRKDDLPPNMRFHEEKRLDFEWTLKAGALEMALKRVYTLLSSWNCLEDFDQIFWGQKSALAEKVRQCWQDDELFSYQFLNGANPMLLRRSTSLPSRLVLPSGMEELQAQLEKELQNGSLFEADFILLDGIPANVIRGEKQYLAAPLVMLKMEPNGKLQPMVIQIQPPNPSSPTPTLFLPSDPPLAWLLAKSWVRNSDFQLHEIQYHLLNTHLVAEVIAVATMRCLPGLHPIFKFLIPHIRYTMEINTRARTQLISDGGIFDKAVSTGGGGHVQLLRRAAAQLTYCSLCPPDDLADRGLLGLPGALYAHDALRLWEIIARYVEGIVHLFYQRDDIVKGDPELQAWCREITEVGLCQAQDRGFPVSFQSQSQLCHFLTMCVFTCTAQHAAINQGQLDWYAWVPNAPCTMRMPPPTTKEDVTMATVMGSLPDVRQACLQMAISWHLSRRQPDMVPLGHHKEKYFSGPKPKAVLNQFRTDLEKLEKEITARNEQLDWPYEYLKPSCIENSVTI

Row | SMILES | Potency | activity change, negative = inhibition
1 | CCn1c2ccccc2c2cc(CN3CCN(Cc4ccc(OC)c(OC)c4)CC3)ccc21 | inconclusive: 22.4 µM [inhibitor, partial curve] | 
2 | COCCN(Cc1cc2cc(C)ccc2n2nnnc12)C(=S)Nc1ccccc1C |  | inactive: -4.18%
3 | Cc1ccc(C)c(OCCC(=O)N2CCN(S(=O)(=O)c3cc(F)ccc3F)CC2)c1 | inconclusive: 44.7 µM [inhibitor, partial curve, poor fit] | 
4 | Cc1cc(NC(=O)Cn2c(=O)c3c(ncn3CC(C)C)n(Cc3ccccc3)c2=O)no1 | inconclusive: 56.2 µM [inhibitor, partial curve, poor fit] | 
5 | Cc1cc(C(=O)N2CCc3c([nH]c4ccccc34)C2c2cccc(Cl)c2)nn1C (configuration not stated) |  | inactive: -17.5%
6 | Cc1c(CCC(=O)O)c(=O)oc2cc3occ(-c4ccc(Cl)cc4)c3cc12 | inconclusive: 35.5 µM [inhibitor, single point] | 
7 | COc1ccc(NC(=O)CN(C)C(=O)c2cnc(Cl)c(Cl)c2)cc1 | inconclusive: 112 µM [inhibitor, partial curve, poor fit] | 
8 | OC(c1ccccc1)(c1nc(-c2ccccc2)cs1)C(F)(F)F (configuration not stated) | inconclusive: 44.7 µM [inhibitor, partial curve, poor fit] | 
9 | O=C1CN(C(=O)CSc2nc(-c3ccc(Cl)cc3)cs2)c2ccccc2N1 |  | inactive: 0.0789%
10 | Cc1cc(C)c(Cn2c(=O)n(CCCC(=O)NCc3ccco3)c(=O)c3ccccc32)c(C)c1 |  | inactive: 0%
11 | O=C(CSc1ccsc1[N+](=O)[O-])NCc1ccco1 | inconclusive: 79.4 µM [inhibitor, partial curve, poor fit] | 
12 | O=C(NCC1CC1)c1cc(-c2ccccc2)nn1CC1CC(c2cccnc2)=NO1 (configuration not stated) | inconclusive: 39.8 µM [inhibitor, partial curve] | 
13 | O=C(Nc1ccccc1C(=O)NC1CCCC1)c1cccc(-n2cnnn2)c1 | inconclusive: 50.1 µM [inhibitor, partial curve, poor fit] | 
14 | CCC[C@@H]1CN(C(=O)C2(c3ccc(F)cc3)CCOCC2)C[C@H]1N(C)C |  | inactive: 8.42%
15 | O=C1NCCCCCCN(Cc2ccncc2)[C@@H]2CN(C(=O)c3ccco3)CC[C@@H]12 |  | inactive: 73.8%
16 | O=c1[nH]c(=S)[nH]c2nc(-c3cccs3)cc(C(F)(F)F)c12 | inconclusive: 1.78 µM [inhibitor, partial curve, poor fit] | 
17 | COC(=O)c1ccc(NS(=O)(=O)c2ccc(Cl)cc2)o1 | inconclusive: 44.7 µM [inhibitor, partial curve, poor fit] | 
18 | CCOC(=O)C1CCN(S(=O)(=O)c2c(C)n[nH]c2C)CC1 | inconclusive: 89.1 µM [inhibitor, single point] | 
19 | CCOC(=O)Cn1c(=O)n(CC2CCCO2)c2nc(-c3ccccc3Cl)nc(C(N)=O)c21 (configuration not stated) | inconclusive: 39.8 µM [inhibitor, partial curve, poor fit] | 
20 | CC(C)OC(=O)CCNC(=O)c1ccc(Cl)cc1Cl |  | inactive: 25%
21 | CN1CCCN(Cc2ccc(Cl)cc2Cl)CC1 | inconclusive: 0.251 µM [inhibitor, full curve, poor fit] | 

As entered above.
Under activity change, negative = inhibition, `Cc1cc(C)c(Cn2c(=O)n(CCCC(=O)NCc3ccco3)c(=O)c3ccccc32)c(C)c1` has inactive: 0%
Under Potency, `CN1CCCN(Cc2ccc(Cl)cc2Cl)CC1` has inconclusive: 0.251 µM [inhibitor, full curve, poor fit]

Further records

Row | SMILES | Potency | activity change, negative = inhibition
22 | OC(COc1ccccc1CNCCc1ccccc1)CN1CCSCC1 (configuration not stated) |  | inactive: -9.51%
23 | CC(C)NC(=O)N(C)C[C@H]1Oc2cc(C#Cc3ccc(F)cc3)ccc2S(=O)(=O)N([C@H](C)CO)C[C@H]1C | inconclusive: 39.8 µM [inhibitor, partial curve, poor fit] | 
24 | Cc1oc(-c2nc(C#N)c(NCc3ccccc3)o2)cc1S(=O)(=O)N1CCOCC1 | inconclusive: 89.1 µM [inhibitor, single point] | 
25 | Cc1ccc(C2Cn3nnc(C(=O)N4CCN(C(=O)c5ccc(N(C)C)cc5)CC4)c3CO2)cc1 (configuration not stated) | inconclusive: 79.4 µM [inhibitor, partial curve] | 
26 | CC1=C(C(=O)Nc2ccccc2C)C(c2cccs2)n2nc(SCc3cc(C)ccc3C)nc2N1 (configuration not stated) | inconclusive: 100 µM [inhibitor, partial curve, poor fit] | 
27 | O=C(Cn1nc(-c2ccco2)ccc1=O)NC1CCCc2c1[nH]c1ccccc21 (configuration not stated) | inconclusive: 50.1 µM [inhibitor, partial curve, poor fit] | 
28 | COc1ccc(NC(=O)COc2coc(CN3CCN(c4ccccc4)CC3)cc2=O)cc1 |  | inactive: -14.3%
29 | O=c1c(N2CCc3ccccc3C2)csc2ccc(F)cc12 | inconclusive: 17.8 µM [inhibitor, partial curve, poor fit] | 
30 | O=[N+]([O-])c1cccc(-c2noc([C@@H]3C[C@@H](O)CN3Cc3ccccc3O)n2)c1 | inconclusive: 22.4 µM [inhibitor, partial curve, poor fit] | 
31 | c1ccc(CNCC2CCCO2)cc1 (configuration not stated) |  | inactive: 6.01%
32 | O=C(c1cc(-c2ccc(F)cc2)nc2ccccc12)N1CCCC1c1nc(C2CCOCC2)no1 (configuration not stated) |  | inactive: 14.6%
33 | CC1(C)CC(CC(=O)O)(c2cccc(C(F)(F)F)c2)CCO1 (configuration not stated) | inconclusive: 0.501 µM [inhibitor, full curve] | 
34 | CC(=O)N1CCC(Cc2ccc(C(N)=O)cc2)CC1 |  | inactive: 30.3%
35 | CCNC(=O)NC[C@@H]1C=C(C)[C@H](CC(=O)NCCN(C)C)C[C@H]1C(C)C |  | inactive: 25.1% [at 176 µM]
36 | COc1cc(-c2nnc(-c3cccc4ccccc34)o2)cc(OC)c1OC |  | inactive: -10.7%
37 | Cc1ccc(CN(C)CC(=O)NC(C)c2ccc(C)c(C)c2)o1 (configuration not stated) |  | inactive: 0.565%
38 | CC(=O)Nc1ccc(NC(=O)c2cnn(-c3ccccc3F)c2C)cc1C | inconclusive: 7.94 µM [inhibitor, full curve] | 
39 | O=C(CCc1nc2ccccc2[nH]1)Nc1ccccc1 |  | inactive: 0.733%
40 | CCCCCCCCCCCCCCCC[n+]1cccc2ccccc21 | inconclusive: 44.7 µM [inhibitor, partial curve, poor fit] | 
41 | COc1ccc(CNC(=O)[C@@H](C)C2CC[C@@]3(C)CC[C@H](NC(=O)COc4ccccc4)[C@@H](C)[C@@H]3[C@H]2O)cc1 (some centres not stated) | inconclusive: 7.08 µM [inhibitor, partial curve, poor fit] | 
42 | C[C@@H]1CCCCO[C@H](CN(C)S(=O)(=O)c2ccccc2)[C@@H](C)CN([C@H](C)CO)C(=O)c2cc(NC(=O)Cc3ccccc3)ccc2O1 | inconclusive: 70.8 µM [inhibitor, single point] | 
